{"source": "the supplement of paper PMC6411743", "assay_in_all_cases": "NP40-soluble protein abundance relative to vehicle (solubility fold change) (ratio); higher = more soluble protein in presence of GTP", "key": {"[1]": {"molecular_target": "T1, UniProt Q8WYQ5 and related entries", "T1 sequence (whole entry)": "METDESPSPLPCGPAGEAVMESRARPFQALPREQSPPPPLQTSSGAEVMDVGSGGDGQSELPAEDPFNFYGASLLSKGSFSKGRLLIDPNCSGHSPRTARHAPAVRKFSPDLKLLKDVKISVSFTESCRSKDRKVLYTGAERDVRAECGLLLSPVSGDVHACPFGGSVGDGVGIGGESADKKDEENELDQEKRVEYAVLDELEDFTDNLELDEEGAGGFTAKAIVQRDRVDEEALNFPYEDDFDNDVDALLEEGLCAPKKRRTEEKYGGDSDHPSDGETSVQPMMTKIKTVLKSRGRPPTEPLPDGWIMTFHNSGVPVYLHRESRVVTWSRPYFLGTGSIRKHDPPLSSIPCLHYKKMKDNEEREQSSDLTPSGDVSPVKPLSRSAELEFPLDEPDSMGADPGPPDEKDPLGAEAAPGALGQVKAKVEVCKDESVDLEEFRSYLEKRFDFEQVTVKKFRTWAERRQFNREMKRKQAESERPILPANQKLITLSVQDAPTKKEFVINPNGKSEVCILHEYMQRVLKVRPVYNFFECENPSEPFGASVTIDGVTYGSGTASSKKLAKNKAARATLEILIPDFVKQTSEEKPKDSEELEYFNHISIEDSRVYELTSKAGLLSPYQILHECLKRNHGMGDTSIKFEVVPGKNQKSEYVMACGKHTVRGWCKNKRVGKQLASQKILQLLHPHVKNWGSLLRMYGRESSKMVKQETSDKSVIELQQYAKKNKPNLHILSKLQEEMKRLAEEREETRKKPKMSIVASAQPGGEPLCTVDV", "method_in_brief": "(§1)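 Data come from three independent experiments in which Dounce-homogenised Jurkat crude lysate was treated at eight concentrations from 0.1 to 10 mM. Treatment ran 10 min at room temperature and then 3 min at 37 °C, after which 0.8% NP40 and benzonase were added for 60 min at 4 °C before ultracentrifugation. The supernatant underwent TMT labelling and LC-MS/MS, and vsn-normalised intensities were expressed as fold change against the detergent-processed vehicle in each replicate.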"}, "[2]": {"molecular_target": "T2, UniProt Q92796-3|Q5JUW8 and related entries", "T2 sequence (whole entry)": "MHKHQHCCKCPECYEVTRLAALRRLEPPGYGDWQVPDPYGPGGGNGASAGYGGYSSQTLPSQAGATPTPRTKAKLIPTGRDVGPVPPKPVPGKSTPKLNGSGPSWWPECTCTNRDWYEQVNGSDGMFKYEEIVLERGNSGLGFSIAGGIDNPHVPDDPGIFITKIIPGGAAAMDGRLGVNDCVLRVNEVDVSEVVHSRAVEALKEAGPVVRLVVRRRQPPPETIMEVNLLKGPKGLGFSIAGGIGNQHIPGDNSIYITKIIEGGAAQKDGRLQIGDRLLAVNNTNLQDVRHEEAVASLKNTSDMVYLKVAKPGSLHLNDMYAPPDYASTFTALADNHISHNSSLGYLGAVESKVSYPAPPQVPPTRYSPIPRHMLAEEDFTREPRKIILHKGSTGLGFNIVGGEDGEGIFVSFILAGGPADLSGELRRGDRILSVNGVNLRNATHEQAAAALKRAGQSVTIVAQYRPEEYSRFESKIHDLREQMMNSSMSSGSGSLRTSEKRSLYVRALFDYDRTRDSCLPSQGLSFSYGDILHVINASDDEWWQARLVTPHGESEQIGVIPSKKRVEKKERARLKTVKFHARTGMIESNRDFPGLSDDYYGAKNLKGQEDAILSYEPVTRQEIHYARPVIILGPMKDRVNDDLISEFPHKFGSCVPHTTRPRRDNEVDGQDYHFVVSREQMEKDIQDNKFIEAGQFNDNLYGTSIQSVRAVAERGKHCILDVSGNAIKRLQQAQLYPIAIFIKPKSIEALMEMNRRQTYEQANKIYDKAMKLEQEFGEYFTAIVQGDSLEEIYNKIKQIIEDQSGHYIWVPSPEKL", "method_in_brief": "as §1"}, "[3]": {"molecular_target": "T3, UniProt Q92851 and related entries", "T3 sequence (whole entry)": "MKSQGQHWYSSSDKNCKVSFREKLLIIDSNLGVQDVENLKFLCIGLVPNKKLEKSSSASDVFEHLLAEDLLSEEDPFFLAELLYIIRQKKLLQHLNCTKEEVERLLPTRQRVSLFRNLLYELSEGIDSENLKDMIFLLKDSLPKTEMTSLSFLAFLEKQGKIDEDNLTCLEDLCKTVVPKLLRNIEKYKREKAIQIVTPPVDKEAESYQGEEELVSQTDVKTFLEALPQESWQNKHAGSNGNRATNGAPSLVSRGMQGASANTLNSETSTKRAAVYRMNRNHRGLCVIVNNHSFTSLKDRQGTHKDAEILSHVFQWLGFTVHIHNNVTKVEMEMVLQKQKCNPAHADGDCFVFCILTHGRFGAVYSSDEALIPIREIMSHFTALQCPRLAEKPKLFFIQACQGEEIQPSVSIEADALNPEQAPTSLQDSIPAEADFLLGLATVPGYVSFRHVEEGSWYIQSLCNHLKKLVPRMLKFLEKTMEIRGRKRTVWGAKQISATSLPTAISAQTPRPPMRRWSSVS", "method_in_brief": "as §1"}, "[4]": {"molecular_target": "T4, UniProt Q969V3 and related entries", "T4 sequence (whole entry)": "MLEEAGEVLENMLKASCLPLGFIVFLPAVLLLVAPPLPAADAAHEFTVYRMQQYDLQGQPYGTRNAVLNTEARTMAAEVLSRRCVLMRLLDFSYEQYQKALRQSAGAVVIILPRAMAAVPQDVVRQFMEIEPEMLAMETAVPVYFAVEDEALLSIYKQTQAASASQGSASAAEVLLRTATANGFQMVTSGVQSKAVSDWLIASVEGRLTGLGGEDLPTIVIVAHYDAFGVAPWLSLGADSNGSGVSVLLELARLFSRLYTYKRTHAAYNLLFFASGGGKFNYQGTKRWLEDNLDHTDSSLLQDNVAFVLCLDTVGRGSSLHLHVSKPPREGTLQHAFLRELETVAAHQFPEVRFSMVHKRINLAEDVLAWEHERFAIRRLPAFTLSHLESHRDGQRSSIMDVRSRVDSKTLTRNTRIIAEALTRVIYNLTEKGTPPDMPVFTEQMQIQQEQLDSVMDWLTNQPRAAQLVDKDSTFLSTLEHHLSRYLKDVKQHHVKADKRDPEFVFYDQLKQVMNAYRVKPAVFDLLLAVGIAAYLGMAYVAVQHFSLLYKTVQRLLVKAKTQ", "method_in_brief": "as §1"}, "[5]": {"molecular_target": "T5, UniProt Q96AQ8 and related entries", "T5 sequence (whole entry)": "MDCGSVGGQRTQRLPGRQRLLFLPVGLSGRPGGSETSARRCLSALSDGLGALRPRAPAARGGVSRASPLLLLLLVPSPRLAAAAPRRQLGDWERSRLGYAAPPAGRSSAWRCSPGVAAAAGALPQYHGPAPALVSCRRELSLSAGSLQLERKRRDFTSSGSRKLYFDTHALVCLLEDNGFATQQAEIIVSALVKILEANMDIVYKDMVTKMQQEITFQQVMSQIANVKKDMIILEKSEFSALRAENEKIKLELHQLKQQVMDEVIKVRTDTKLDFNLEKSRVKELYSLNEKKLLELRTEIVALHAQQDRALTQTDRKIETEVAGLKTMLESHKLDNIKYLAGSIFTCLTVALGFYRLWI", "method_in_brief": "as §1"}, "[6]": {"molecular_target": "T6, UniProt Q96AX2 and related entries", "T6 sequence (whole entry)": "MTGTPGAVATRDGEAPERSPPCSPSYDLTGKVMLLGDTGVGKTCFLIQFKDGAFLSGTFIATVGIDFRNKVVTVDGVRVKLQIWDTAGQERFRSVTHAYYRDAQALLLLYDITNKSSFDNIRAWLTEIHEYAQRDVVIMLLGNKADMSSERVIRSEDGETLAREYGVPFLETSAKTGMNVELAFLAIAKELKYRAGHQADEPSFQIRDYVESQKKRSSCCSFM", "method_in_brief": "as §1"}}, "note": "± gives the standard deviation of the averaged measurements. The list shows a part of the results.", "data": [{"smiles": "Nc1nc2c(ncn2[C@@H]2O[C@H](COP(=O)(O)OP(=O)(O)OP(=O)(O)O)[C@@H](O)[C@H]2O)c(=O)[nH]1", "note": "[guanosine triphosphate]", "values": [{"measurement": "NP40-soluble protein abundance", "setting": "[1]; concentration: 4mM", "value": "1.13 ± 0.037"}, {"measurement": "NP40-soluble protein abundance", "setting": "[1]; concentration: 6mM", "value": "1.19 ± 0.05"}, {"measurement": "NP40-soluble protein abundance", "setting": "[1]; concentration: 8mM", "value": "1.24 ± 0.1"}, {"measurement": "NP40-soluble protein abundance", "setting": "[1]; concentration: 10mM", "value": "1.19 ± 0.066"}, {"measurement": "NP40-soluble protein abundance", "setting": "[2]; concentration: 0.1mM", "value": "1.15 ± 0.034"}, {"measurement": "NP40-soluble protein abundance", "setting": "[2]; concentration: 0.5mM", "value": "1.17 ± 0.023"}, {"measurement": "NP40-soluble protein abundance", "setting": "[2]; concentration: 1mM", "value": "1.17 ± 0.037"}, {"measurement": "NP40-soluble protein abundance", "setting": "[2]; concentration: 2mM", "value": "1.17 ± 0.038"}, {"measurement": "NP40-soluble protein abundance", "setting": "[2]; concentration: 4mM", "value": "1.13 ± 0.03"}, {"measurement": "NP40-soluble protein abundance", "setting": "[2]; concentration: 6mM", "value": "1.12 ± 0.07"}, {"measurement": "NP40-soluble protein abundance", "setting": "[2]; concentration: 8mM", "value": "1.18 ± 0.018"}, {"measurement": "NP40-soluble protein abundance", "setting": "[2]; concentration: 10mM", "value": "1.14 ± 0.037"}, {"measurement": "NP40-soluble protein abundance", "setting": "[3]; concentration: 0.1mM", "value": "1.06 ± 0.045"}, {"measurement": "NP40-soluble protein abundance", "setting": "[3]; concentration: 0.5mM", "value": "1.04 ± 0.016"}, {"measurement": "NP40-soluble protein abundance", "setting": "[3]; concentration: 1mM", "value": "1 ± 0.058"}, {"measurement": "NP40-soluble protein abundance", "setting": "[3]; concentration: 2mM", "value": "0.99 ± 0.054"}, {"measurement": "NP40-soluble protein abundance", "setting": "[3]; concentration: 4mM", "value": "0.994 ± 0.097"}, {"measurement": "NP40-soluble protein abundance", "setting": "[3]; concentration: 6mM", "value": "0.951 ± 0.075"}, {"measurement": "NP40-soluble protein abundance", "setting": "[3]; concentration: 8mM", "value": "0.915 ± 0.06"}, {"measurement": "NP40-soluble protein abundance", "setting": "[3]; concentration: 10mM", "value": "0.884 ± 0.085"}, {"measurement": "NP40-soluble protein abundance", "setting": "[4]; concentration: 0.1mM", "value": "1.08 ± 0.019"}, {"measurement": "NP40-soluble protein abundance", "setting": "[4]; concentration: 0.5mM", "value": "1.03 ± 0.032"}, {"measurement": "NP40-soluble protein abundance", "setting": "[4]; concentration: 1mM", "value": "0.972 ± 0.013"}, {"measurement": "NP40-soluble protein abundance", "setting": "[4]; concentration: 2mM", "value": "0.981 ± 0.044"}, {"measurement": "NP40-soluble protein abundance", "setting": "[4]; concentration: 4mM", "value": "1 ± 0.023"}, {"measurement": "NP40-soluble protein abundance", "setting": "[4]; concentration: 6mM", "value": "0.9519 ± 0.0095"}, {"measurement": "NP40-soluble protein abundance", "setting": "[4]; concentration: 8mM", "value": "0.955 ± 0.046"}, {"measurement": "NP40-soluble protein abundance", "setting": "[4]; concentration: 10mM", "value": "0.936 ± 0.056"}, {"measurement": "NP40-soluble protein abundance", "setting": "[5]; concentration: 0.1mM", "value": "0.9131 ± 0.0083"}, {"measurement": "NP40-soluble protein abundance", "setting": "[5]; concentration: 0.5mM", "value": "0.922 ± 0.028"}, {"measurement": "NP40-soluble protein abundance", "setting": "[5]; concentration: 1mM", "value": "0.945 ± 0.053"}, {"measurement": "NP40-soluble protein abundance", "setting": "[5]; concentration: 2mM", "value": "0.947 ± 0.071"}, {"measurement": "NP40-soluble protein abundance", "setting": "[5]; concentration: 4mM", "value": "0.918 ± 0.089"}, {"measurement": "NP40-soluble protein abundance", "setting": "[5]; concentration: 6mM", "value": "0.924 ± 0.042"}, {"measurement": "NP40-soluble protein abundance", "setting": "[5]; concentration: 8mM", "value": "0.848 ± 0.13"}, {"measurement": "NP40-soluble protein abundance", "setting": "[5]; concentration: 10mM", "value": "0.902 ± 0.044"}, {"measurement": "NP40-soluble protein abundance", "setting": "[6]; concentration: 0.1mM", "value": "1.04 ± 0.043"}, {"measurement": "NP40-soluble protein abundance", "setting": "[6]; concentration: 0.5mM", "value": "1.03 ± 0.064"}, {"measurement": "NP40-soluble protein abundance", "setting": "[6]; concentration: 1mM", "value": "0.946 ± 0.1"}, {"measurement": "NP40-soluble protein abundance", "setting": "[6]; concentration: 2mM", "value": "1 ± 0.12"}, {"measurement": "NP40-soluble protein abundance", "setting": "[6]; concentration: 4mM", "value": "0.956 ± 0.13"}, {"measurement": "NP40-soluble protein abundance", "setting": "[6]; concentration: 6mM", "value": "0.921 ± 0.085"}]}]}
